In all, about 300,000 compounds went through this assay and about 5,400 (1.8%) were called active. Inconclusive means that the source gave no clear call. Such entries were picked first, then a sample of the others. Calls follow the shape of the full dose curve; tested in HEK293 cells. Potencies of inconclusive entries are doubtful fits and often do not repeat. Residues, ends and D or L forms follow the SMILES beside them. *: point of attachment. Cbz = O=C(OCc1ccccc1)*; OtBu = CC(C)(C)O*; tBu = CC(C)(C)*
assay: qHTS for inhibitors of binding or entry into cells for Marburg Virus; details: Marburg virus pseudotyped entry inhibition, cell reporter; activity change, negative = inhibition: at 37.8 µM (top of the series) unless noted
% is scaled to controls: 0 for no effect and ±100 for the full control effect; potency is read from the fitted curve at half-maximal effect.

| SMILES | Potency | activity change, negative = inhibition |
| --- | --- | --- |
| c1ccc(CSC2=NNC(c3ccccn3)S2)cc1 (stereo not given) | inconclusive: 12.6 µM [inhibitor, partial curve, poor fit] | – |
| COc1ccccc1Oc1cc(C#N)c(C#N)cc1-n1nnc2ccccc21 | inconclusive: 25.9 µM [inhibitor, single point] | – |
| Cc1ccc(CNC(=O)C2CCCN(S(C)(=O)=O)C2)cc1 (stereo not given) | inconclusive: 18.3 µM [activator, single point] | – |
| CSc1nnc(-c2ccccc2SC)o1 | inconclusive: 17.8 µM [activator, single point] | – |
| Clc1ccc(C2=Nn3c(nnc3-c3n[nH]c4c3CCC4)SC2)cc1Cl | inconclusive: 4.61 µM [inhibitor, partial curve, poor fit] | – |
| CN1CCN(c2ccc(NC(=O)c3cccc(OCc4ccccc4)c3)cc2)CC1 | active: 22.4 µM | – |
| COC(=O)C1=C(c2ccccc2OCc2ccccc2)C[C@@H]2CC[C@H]1N2C(=O)NCc1ccccc1 | inactive | – |
| Cc1cc2ccccn2c1C(=O)Nc1cccc(Cl)c1 | inconclusive: 3.16 µM [activator, partial curve, poor fit] | – |
| CSCc1ccc(C(=O)NCC(c2cccs2)N2CCOCC2)cc1 (stereo not given) | inconclusive: 4.47 µM [activator, single point] | – |
| CSc1nsc(SCC(=O)NC2CCCCC2)n1 | – | inconclusive: 35% [activator] |
| CN1CCN(NC(=O)Nc2cccc(F)c2)CC1 | inactive | – |
| O=C(CCSc1ccc(Cl)cc1)NCc1ccccn1 | inactive | – |
| CCN(CC)c1nc(C)nc2c1cnn2CCc1ccccc1 | inactive | – |
| Cc1c(C(=O)N/N=C/c2ccccc2)[nH]c2c([N+](=O)[O-])cccc12 | inconclusive: 1.26 µM [inhibitor, full curve] | – |
| COc1ccc2[nH]cc(C=O)c2c1 | inconclusive: 8.2 µM [inhibitor, partial curve] | – |
| CC(C)c1ccc(C2CC(=O)Nc3cc4c(cc32)OCCO4)cc1 (stereo not given) | inconclusive: 22.4 µM [inhibitor, single point] | – |
| CC(=O)c1ccc(OCC(O)CN2CCN(S(=O)(=O)c3cccc(Br)c3)CC2)cc1 (stereo not given) | inconclusive: 22.4 µM [inhibitor, single point] | – |
| O=C(Nc1ccc2nc(SCc3ccc(Cl)cc3)sc2c1)c1ccccc1C(=O)N1CCOCC1 | inconclusive: 0.501 µM [inhibitor, partial curve, poor fit] | – |
| CN(Cc1nc(-c2ccc(Cl)cc2)no1)S(=O)(=O)c1ccccc1 | inactive | – |
| COC(=O)c1cc(C#N)c(OC)nc1C | inconclusive: 5.62 µM [inhibitor, single point] | – |
| CC(=O)c1ccc(NC(=O)c2ccc(S(=O)(=O)c3ccccc3)cc2)cc1 | inconclusive: 35.5 µM [inhibitor, single point] | – |
| Cc1cccc(C(C)C)c1-n1nnnc1-c1ccccc1 | inconclusive: 8.2 µM [inhibitor, partial curve, poor fit] | – |
| Cc1c(CCOC(=O)c2ccc(Cl)cc2Cl)sc[n+]1CC(=O)c1ccccc1 | inactive | – |

Full records from above. Order of values: Potency	activity change, negative = inhibition
`COc1ccccc1Oc1cc(C#N)c(C#N)cc1-n1nnc2ccccc21` in the list: inconclusive: 25.9 µM [inhibitor, single point]	–
`CSc1nnc(-c2ccccc2SC)o1` in the list: inconclusive: 17.8 µM [activator, single point]	–

Further entries follow.

| SMILES | Potency | activity change, negative = inhibition |
| --- | --- | --- |
| Cc1ccc(/C=C(\C#N)C(=O)NC(C)C)o1 | inactive | – |
| Cc1sc2nc(CN(C(=O)NC3CCCCC3)C3CCCCC3)[nH]c(=O)c2c1C | inconclusive: 20.6 µM [inhibitor, single point] | – |
| Cc1ccc(S(=O)(=O)CCC(=O)OCC(=O)NCC(=O)Nc2c(C)cc(C)cc2C)cc1 | inactive | – |
| Cc1cc(C(=O)N2CCC(C(F)(F)F)n3nccc32)on1 (stereo not given) | inconclusive: 5.01 µM [activator, partial curve, poor fit] | – |
| CC(NC(=O)OCc1ccccc1)C(=O)NCC(=O)NC(Cc1ccc(OC(C)(C)C)cc1)C(=O)OC(C)(C)C (stereo not drawn) (Cbz-Ala-Gly-Tyr(tBu)-OtBu; configuration not given here) | inconclusive: 12.6 µM [inhibitor, single point] | – |
| Cn1c(=O)c2c(ncn2CCOc2ccc(Br)cc2)n(C)c1=O | inactive | – |
| COc1ccc(/C=C2/C(=O)N(c3nc4ccccc4s3)N=C2CSc2ccc(Cl)cc2)cc1 | inconclusive: 28.2 µM [activator, partial curve, poor fit] | – |
| COC(=O)c1c(-c2ccc(C)cc2)csc1NC(=O)Cc1ccc(OC)c(OC)c1 | inconclusive: 12.6 µM [inhibitor, partial curve, poor fit] | – |
| COc1cccc(-n2nnnc2SCC(=O)c2ccc(NC(C)=O)cc2)c1 | inactive | – |
| CCCC(=O)NC(=S)Nc1ccccc1C(=O)OC | inconclusive: 10 µM [activator, single point] | – |
| O=C(NCc1ccccn1)C12CC3CC(CC(C3)C1)C2 | inconclusive: 5.62 µM [inhibitor, single point] | – |
| CCOc1ccccc1-c1noc(CSc2nnc(-c3ccccc3)n2-c2ccc(OC)cc2)n1 | inconclusive: 3.55 µM [inhibitor, single point] | – |
| O=C(CCSCCC(=O)NN=Cc1ccccc1)NN=Cc1ccccc1 | inactive | – |
| O=C(Cn1cc([N+](=O)[O-])cn1)NCCc1c[nH]c2ccccc12 | inactive | – |
| CCn1nccc1C(=O)Nc1cc(Cl)ccc1Cl | inactive | – |
| COc1cc(/C=C2/C(=N)N3C=CSC3=NC2=O)ccc1OCCCOc1c(C)cccc1C | inactive | – |
| CCn1c(C)c(C2=CCN(S(=O)(=O)c3ccccc3)CC2)c2ccccc21 | inconclusive: 0.112 µM [activator, full curve, poor fit] | – |
| O=C(CSc1nc2ccccc2s1)Nc1ccc(Cl)c(S(=O)(=O)N2CCOCC2)c1 | inconclusive: 25.1 µM [inhibitor, single point] | – |
| Cc1cccc(-n2ncc3c2CCCC3NC(=O)C2CCOCC2)c1C (stereo not given) | inactive | – |
| CSc1ncnc2c1ncn2CC(=O)C1CCC2C3CCC4=CC(=O)CCC4(C)C3CCC12C (stereo not given) | inconclusive: 20 µM [inhibitor, single point] | – |
| COc1ccc(/C=C2\SC(=O)N(CCC(=O)NC3CCS(=O)(=O)C3)C2=O)cc1 (stereo not given) | inconclusive: 1.41 µM [activator, full curve, poor fit] | – |
| CCC(/C=C1\Sc2ccc(OC)cc2N1CC)=C\c1sc2ccc(OC)cc2[n+]1CCCS(=O)(=O)[O-] | inconclusive: 29.1 µM [inhibitor, single point] | – |

Source: PubChem BioAssay AID540276 (National Center for Advancing Translational Sciences (NCATS), 2011)
